The target in test [1] is PKR‐Flag expressed in HEK293T cells (UniProt P19525). Nature of the test: co-IP; HEK293T cells transfected with tagged plasmids (in some panels with circWDR37 or forced PKR expression); lysed in coIP buffer, antibody at 4 °C overnight, beads 1 h at room temperature, washed ten times, western blot. (In general: A western blot detects proteins with antibodies after separation by electrophoresis.)

The chains behind the UniProt entries cited, without tags or fusion partners.
UniProt P19525: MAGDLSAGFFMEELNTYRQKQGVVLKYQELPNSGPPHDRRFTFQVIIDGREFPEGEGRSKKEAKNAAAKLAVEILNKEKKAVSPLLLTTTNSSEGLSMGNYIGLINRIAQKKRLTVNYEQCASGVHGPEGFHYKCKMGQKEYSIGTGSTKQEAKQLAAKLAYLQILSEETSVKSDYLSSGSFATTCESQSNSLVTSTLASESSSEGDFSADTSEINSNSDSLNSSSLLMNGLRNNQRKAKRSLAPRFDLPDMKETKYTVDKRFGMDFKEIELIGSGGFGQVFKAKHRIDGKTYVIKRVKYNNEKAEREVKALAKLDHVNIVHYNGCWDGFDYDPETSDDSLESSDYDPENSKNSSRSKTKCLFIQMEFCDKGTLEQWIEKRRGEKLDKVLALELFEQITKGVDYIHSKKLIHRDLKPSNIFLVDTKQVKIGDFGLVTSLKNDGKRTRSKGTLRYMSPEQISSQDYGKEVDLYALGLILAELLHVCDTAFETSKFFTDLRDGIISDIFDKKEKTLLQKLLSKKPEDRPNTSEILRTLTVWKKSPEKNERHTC

Another test addresses GST‐PKR (UniProt P19525). Nature of the test: pull-down; 20 µg purified GST-PKR or GST-PKR^T446DT451D on glutathione Sepharose 4B; lysate of transfected 293T cells added at 4 °C overnight; washed six times with NETN buffer (20 mM Tris-HCl pH 8.0, 100 mM NaCl, 1 mM EDTA, 0.5% NP-40); western blot; only the target purified.
The target of test [2] is double‐stranded RNA‐activated protein kinase R (PKR), endogenous in NPC cells (human (endogenous in HONE1 and S18)) (UniProt P19525). Put plainly: co-IP; HONE1 cells treated with si-circWDR37 or siSCR; PKR with PACT or TRBP; which protein was precipitated is not told.
In a further test the target is p65‐Flag, Q04206. Nature of the test: co-IP; HEK293T cells transfected with tagged plasmids (in some panels with circWDR37 or forced PKR expression); lysed in coIP buffer, antibody at 4 °C overnight, beads 1 h at room temperature, washed ten times, western blot. The following applies: remark: other sources report otherwise.

These are yes or no findings as the source states them, for the method shown. In cells and extracts the contact can be indirect. Some results given as binding are weak or reduced against the parent protein; the word gives no strength. For some of these results: Sequences can lack the tags named with a protein.

These results are taken from paper PMC10015868.

B1: IKKβ‐HA (I‐kappaB kinase beta), full length (protein, UniProt O14920 1-756)
chain: MSWSPSLTTQTCGAWEMKERLGTGGFGNVIRWHNQETGEQIAIKQCRQELSPRNRERWCLEIQIMRRLTHPNVVAARDVPEGMQNLAPNDLPLLAMEYCQGGDLRKYLNQFENCCGLREGAILTLLSDIASALRYLHENRIIHRDLKPENIVLQQGEQRLIHKIIDLGYAKELDQGSLCTSFVGTLQYLAPELLEQQKYTVTVDYWSFGTLAFECITGFRPFLPNWQPVQWHSKVRQKSEVDIVVSEDLNGTVKFSSSLPYPNNLNSVLAERLEKWLQLMLMWHPRQRGTDPTYGPNGCFKALDDILNLKLVHILNMVTGTIHTYPVTEDESLQSLKARIQQDTGIPEEDQELLQEAGLALIPDKPATQCISDGKLNEGHTLDMDLVFLFDNSKITYETQISPRPQPESVSCILQEPKRNLAFFQLRKVWGQVWHSIQTLKEDCNRLQQGQRAAMMNLLRNNSCLSKMKNSMASMSQQLKAKLDFFKTSIQIDLEKYSEQTEFGITSDKLLLAWREMEQAVELCGRENEVKLLVERMMALQTDIVDLQRSPMGRKQGGTLDDLEEQARELYRRLREKPRDQRTEGDSQEMVRLLLQAIQSFEKKVRVIYTQLSKTVVCKQKALELLPKVEEVVSLMNEDEKTVVRLQEKRQKELWNLLKIACSKVRGPVSGSPDSMNASRLSQPGQLMSQPSTASNSLPEPAKKSEELVAEAHNLCTLLENAIQDTVREQDQSFTALDWSWLQTEEEEHSCLEQAS
B1: the binding entry (in test [1]; in the test with GST‐PKR) was “binds” each time.

B2: TAR RNA‐binding protein (TRBP) (protein, UniProt Q15633 1-366)
chain: MSEEEQGSGTTTGCGLPSIEQMLAANPGKTPISLLQEYGTRIGKTPVYDLLKAEGQAHQPNFTFRVTVGDTSCTGQGPSKKAAKHKAAEVALKHLKGGSMLEPALEDSSSFSPLDSSLPEDIPVFTAAAAATPVPSVVLTRSPPMELQPPVSPQQSECNPVGALQELVVQKGWRLPEYTVTQESGPAHRKEFTMTCRVERFIEIGSGTSKKLAKRNAAAKMLLRVHTVPLDARDGNEVEPDDDHFSIGVGSRLDGLRNRGPGCTWDSLRNSVGEKILSLRSCSLGSLGALGPACCRVLSELSEEQAFHVSYLDIEELSLSGLCQCLVELSTQPATVCHGSATTREAARGEAARRALQYLKIMAGSK
With B2, in test [2], the binding entry is “binds”.

B3: IκBα‐myc (NF‐κB inhibitor alpha), P25963 1-317 (protein)
chain: MFQAAERPQEWAMEGPRDGLKKERLLDDRHDSGLDSMKDEEYEQMVKELQEIRLEPQEVPRGSEPWKQQLTEDGDSFLHLAIIHEEKALTMEVIRQVKGDLAFLNFQNNLQQTPLHLAVITNQPEIAEALLGAGCDPELRDFRGNTPLHLACEQGCLASVGVLTQSCTTPHLHSILKATNYNGHTCLHLASIHGYLGIVELLVSLGADVNAQEPCNGRTALHLAVDLQNPDLVSLLLKCGADVNRVTYQGYSPYQLTWGRPSTRIQQQLGQLTLENLQMLPESEDEESYDTESEFTEFTEDELPYDDCVFGGQRLTL
With B3, the binding entry in the test with p65‐Flag, Q04206 is on record as “binds”.
